Results as given in the supplement of paper PMC10849652.
The list shows a part of the results.

Chains of the proteins cited; added tags and fusions are not shown. Lines headed by an entry give the natural chain unless they say otherwise; changes in a name come on top.
UniProt Q02218: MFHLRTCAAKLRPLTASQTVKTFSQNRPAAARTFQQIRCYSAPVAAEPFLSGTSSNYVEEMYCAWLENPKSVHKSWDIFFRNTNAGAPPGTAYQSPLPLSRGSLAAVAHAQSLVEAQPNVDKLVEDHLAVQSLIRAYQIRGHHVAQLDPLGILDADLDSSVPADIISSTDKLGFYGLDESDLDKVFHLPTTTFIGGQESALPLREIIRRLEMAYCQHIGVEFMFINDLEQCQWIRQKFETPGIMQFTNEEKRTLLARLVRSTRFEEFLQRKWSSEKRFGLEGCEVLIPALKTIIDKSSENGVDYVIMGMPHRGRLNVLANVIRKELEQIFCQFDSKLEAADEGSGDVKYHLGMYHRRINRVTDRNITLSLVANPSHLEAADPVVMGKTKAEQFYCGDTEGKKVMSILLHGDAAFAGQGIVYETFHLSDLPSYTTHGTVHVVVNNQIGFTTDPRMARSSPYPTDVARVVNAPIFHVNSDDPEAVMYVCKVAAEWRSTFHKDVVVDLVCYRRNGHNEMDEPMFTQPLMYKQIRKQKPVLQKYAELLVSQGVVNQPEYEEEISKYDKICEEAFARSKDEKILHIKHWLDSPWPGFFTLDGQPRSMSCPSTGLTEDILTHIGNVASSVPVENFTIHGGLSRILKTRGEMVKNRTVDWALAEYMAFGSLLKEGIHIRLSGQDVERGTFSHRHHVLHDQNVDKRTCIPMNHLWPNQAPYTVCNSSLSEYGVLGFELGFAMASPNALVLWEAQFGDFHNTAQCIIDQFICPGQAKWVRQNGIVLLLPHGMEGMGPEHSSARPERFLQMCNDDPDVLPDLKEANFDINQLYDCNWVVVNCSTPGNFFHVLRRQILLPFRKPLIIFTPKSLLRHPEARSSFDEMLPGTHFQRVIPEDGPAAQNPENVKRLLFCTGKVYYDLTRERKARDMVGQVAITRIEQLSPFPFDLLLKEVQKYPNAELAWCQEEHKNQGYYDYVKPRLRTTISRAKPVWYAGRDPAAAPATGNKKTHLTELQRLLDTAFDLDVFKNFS
UniProt Q99497, whole entry, looked up: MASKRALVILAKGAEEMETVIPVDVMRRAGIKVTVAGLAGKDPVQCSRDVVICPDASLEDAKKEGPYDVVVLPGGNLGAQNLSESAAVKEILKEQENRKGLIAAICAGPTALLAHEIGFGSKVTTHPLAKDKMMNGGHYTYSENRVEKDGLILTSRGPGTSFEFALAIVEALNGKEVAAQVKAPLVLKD
UniProt P07237: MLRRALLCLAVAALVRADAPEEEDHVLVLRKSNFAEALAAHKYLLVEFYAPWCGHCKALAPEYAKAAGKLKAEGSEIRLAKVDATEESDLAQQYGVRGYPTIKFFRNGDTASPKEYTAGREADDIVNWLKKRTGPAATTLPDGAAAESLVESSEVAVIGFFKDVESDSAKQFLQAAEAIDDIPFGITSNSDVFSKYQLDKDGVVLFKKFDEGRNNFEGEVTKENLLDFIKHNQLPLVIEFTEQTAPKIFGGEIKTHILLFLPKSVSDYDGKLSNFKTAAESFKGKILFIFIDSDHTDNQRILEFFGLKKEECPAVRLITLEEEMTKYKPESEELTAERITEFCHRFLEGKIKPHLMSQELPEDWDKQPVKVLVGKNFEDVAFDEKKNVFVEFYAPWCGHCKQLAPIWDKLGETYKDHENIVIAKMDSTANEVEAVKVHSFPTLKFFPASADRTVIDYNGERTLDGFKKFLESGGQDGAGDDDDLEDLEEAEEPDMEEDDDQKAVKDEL
UniProt Q01804: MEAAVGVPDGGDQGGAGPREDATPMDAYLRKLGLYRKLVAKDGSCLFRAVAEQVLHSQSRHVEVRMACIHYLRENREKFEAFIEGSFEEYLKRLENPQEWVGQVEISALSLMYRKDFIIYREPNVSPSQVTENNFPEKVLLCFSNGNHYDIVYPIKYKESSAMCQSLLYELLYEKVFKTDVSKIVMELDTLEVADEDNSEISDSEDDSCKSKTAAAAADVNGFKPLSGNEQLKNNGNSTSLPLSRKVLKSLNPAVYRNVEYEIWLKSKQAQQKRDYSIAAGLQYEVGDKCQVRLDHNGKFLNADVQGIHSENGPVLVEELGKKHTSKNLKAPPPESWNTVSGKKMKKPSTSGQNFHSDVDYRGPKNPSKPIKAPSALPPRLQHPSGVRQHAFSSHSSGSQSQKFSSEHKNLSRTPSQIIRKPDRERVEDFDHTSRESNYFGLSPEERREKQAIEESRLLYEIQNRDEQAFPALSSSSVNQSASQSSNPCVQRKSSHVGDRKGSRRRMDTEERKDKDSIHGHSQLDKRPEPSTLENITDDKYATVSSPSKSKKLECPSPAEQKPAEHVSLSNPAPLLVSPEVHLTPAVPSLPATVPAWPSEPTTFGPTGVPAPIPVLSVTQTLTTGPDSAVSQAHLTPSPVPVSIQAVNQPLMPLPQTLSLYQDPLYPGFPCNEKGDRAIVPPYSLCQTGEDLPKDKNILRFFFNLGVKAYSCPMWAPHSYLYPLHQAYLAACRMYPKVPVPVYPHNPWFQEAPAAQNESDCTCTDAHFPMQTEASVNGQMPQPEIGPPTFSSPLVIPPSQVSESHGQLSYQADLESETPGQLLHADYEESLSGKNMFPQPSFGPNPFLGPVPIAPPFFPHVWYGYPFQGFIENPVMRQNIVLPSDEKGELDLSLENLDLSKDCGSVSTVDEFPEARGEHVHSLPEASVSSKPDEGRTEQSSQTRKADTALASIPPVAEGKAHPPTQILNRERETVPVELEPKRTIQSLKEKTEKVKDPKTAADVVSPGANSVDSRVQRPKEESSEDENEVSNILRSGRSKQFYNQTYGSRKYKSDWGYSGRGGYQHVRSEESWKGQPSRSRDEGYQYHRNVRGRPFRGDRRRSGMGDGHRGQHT
UniProt P52948: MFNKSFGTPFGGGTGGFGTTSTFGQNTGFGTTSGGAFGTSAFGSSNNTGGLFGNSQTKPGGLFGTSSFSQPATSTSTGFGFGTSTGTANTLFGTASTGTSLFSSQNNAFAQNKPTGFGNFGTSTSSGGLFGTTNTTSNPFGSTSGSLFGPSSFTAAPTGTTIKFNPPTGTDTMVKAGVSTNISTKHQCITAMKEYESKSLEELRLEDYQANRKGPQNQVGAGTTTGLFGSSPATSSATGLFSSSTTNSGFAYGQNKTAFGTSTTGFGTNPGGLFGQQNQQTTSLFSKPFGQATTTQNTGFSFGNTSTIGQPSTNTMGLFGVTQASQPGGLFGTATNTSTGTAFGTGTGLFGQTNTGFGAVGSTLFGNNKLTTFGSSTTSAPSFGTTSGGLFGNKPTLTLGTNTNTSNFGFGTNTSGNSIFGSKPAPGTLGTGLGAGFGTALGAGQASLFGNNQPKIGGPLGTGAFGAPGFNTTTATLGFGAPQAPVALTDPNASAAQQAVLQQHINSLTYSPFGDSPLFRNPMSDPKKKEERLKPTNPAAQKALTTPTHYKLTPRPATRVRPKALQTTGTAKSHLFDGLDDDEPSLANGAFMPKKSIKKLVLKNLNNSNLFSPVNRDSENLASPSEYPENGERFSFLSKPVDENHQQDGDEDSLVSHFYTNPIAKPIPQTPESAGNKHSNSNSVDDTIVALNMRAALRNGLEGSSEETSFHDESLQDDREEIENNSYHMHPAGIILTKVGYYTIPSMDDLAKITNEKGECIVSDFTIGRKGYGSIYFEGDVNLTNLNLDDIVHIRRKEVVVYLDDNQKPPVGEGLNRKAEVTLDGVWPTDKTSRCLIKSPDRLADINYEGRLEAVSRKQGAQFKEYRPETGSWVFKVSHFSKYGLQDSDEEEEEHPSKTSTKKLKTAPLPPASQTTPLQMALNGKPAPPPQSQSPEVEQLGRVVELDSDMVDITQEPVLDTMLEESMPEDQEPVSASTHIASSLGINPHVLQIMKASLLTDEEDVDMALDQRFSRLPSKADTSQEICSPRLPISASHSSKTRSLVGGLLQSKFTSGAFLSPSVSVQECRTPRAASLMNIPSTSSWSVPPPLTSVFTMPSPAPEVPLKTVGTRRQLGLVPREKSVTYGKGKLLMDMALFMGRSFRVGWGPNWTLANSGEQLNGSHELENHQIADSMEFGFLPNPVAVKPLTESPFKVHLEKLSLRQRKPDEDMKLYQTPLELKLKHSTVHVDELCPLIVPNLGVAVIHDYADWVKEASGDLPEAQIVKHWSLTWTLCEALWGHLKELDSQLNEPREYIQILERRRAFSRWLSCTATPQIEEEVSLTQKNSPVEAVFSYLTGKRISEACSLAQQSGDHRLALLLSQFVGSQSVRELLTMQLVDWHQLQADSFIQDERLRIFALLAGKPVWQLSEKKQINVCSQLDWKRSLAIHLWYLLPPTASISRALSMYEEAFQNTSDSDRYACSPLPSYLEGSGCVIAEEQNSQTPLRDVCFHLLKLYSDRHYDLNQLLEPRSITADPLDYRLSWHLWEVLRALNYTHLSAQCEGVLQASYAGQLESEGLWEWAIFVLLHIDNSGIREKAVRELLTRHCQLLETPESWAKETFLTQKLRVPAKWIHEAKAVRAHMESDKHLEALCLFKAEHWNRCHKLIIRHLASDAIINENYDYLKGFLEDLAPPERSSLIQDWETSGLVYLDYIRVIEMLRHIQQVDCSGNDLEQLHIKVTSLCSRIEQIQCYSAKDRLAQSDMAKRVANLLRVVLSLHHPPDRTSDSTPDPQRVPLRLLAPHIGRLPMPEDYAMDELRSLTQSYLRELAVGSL
UniProt Q8N573: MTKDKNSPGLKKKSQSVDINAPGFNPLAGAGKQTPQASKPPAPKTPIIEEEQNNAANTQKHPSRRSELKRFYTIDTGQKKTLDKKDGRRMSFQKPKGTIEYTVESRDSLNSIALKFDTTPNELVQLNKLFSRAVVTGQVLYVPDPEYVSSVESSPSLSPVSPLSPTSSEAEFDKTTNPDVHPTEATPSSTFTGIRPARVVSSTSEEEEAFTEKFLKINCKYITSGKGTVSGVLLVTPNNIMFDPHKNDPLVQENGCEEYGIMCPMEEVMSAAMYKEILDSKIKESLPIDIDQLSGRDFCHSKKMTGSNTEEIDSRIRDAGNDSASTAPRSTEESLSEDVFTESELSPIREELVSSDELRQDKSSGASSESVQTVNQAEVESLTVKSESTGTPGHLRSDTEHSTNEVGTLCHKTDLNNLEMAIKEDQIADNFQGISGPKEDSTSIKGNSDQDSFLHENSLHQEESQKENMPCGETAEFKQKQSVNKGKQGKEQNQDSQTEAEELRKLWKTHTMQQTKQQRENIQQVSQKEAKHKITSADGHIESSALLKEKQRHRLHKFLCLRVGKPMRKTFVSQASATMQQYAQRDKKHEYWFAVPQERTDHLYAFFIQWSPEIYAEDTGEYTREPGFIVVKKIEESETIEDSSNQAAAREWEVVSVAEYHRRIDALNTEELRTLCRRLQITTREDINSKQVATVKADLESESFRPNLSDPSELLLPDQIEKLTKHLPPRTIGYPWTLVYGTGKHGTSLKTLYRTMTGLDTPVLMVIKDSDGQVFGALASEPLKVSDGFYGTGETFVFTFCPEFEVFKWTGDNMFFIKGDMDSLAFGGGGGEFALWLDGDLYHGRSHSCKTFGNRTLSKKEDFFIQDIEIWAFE
UniProt Q86W56: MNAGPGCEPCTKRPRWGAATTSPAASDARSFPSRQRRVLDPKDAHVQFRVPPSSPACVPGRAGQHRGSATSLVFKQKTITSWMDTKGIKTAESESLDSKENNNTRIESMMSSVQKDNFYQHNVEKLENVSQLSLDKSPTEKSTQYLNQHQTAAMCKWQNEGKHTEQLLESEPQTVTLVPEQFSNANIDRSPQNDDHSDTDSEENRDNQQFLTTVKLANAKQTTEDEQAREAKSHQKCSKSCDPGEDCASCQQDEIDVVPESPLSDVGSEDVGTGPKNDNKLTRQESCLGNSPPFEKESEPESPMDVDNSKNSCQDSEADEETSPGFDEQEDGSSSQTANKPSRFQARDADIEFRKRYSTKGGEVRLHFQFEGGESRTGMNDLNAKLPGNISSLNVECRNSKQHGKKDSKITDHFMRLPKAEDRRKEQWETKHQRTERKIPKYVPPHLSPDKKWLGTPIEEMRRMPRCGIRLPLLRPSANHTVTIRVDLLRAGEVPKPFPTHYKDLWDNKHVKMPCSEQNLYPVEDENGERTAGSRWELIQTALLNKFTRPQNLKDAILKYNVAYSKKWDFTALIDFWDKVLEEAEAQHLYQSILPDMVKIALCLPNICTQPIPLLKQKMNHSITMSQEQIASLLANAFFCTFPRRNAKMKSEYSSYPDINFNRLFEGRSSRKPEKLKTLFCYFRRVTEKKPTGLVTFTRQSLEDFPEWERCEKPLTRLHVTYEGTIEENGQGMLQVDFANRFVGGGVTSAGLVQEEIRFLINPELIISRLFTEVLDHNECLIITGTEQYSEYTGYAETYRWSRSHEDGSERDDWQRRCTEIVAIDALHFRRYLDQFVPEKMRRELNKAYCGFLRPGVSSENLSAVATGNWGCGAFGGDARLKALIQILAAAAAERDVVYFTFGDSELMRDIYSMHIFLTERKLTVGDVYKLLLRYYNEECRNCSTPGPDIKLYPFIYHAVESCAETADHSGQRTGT

What follows are targets tested with C=CC(=O)N1CCC[C@@H](n2nc(-c3ccc(Oc4ccccc4)cc3)c3c(N)ncnc32)C1 [ibrutinib] (assay: log2 fold change, soluble protein after heating vs DMSO (PISA); higher = thermal stabilisation; K562 lysate, 10 uM; active = over 0.2 and 3.5 SD of the protein, either way, in both replicates (recomputed)).
Outline: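 Soluble protein was defined as the supernatant remaining after 21,000xg for 90 min, following pooling of heated aliquots and adjustment to 0.5% NP-40 at 4°C. Before that, crude K562 extract at 1 mg/mL protein in PBS pH 7.4 with 1 mM MgCl2 was treated with 10 μM compound for 30 min and heated for 3 min across 48°C-58°C. Quantification used TMTpro 16plex LC-MS/MS with channel sums equalised, and values are log-two fold changes in thermal stability relative to solvent controls from duplicates.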

log2 fold change, inactive:
OBI1 (UniProt Q5W0B1) 0.082
OBSL1 (UniProt O75147) 0.037
OGDH (UniProt Q02218) 0.016
PAAF1 (UniProt Q9BRP4) 0.014
OS9 (UniProt Q13438) 0.007
PARK7 (UniProt Q99497) -0.034
PAGE1 (UniProt O75459) -0.068
OSBPL3 isoform 2 (UniProt Q9H4L5) 0.031
PAICS (UniProt E9PBS1) -0.067
OSTF1 (UniProt Q92882) -0.001
PAIP1 (UniProt Q9H074) 0.005
OGFOD1 (UniProt Q8N543) 0.01
P4HB (UniProt P07237) -0.015
OGFR (UniProt Q9NZT2) -0.012
OTUD4 (UniProt Q01804) 0.017
PACC1 (UniProt Q9H813) 0.145
NUP98 (UniProt P52948) -0.01
OCRL (UniProt Q01968) 0.051
OXR1 (UniProt Q8N573) 0.043
PARG (UniProt Q86W56) 0.013
PARD3 (UniProt Q8TEW0) 0.026
OSBPL6 isoform 5 (UniProt Q9BZF3) 0.118
OLA1 (UniProt Q9NTK5) 0.009
P4HA1 (UniProt P13674) 0.004

A portion from the list above:
log2 fold change, inactive:
OBI1 (UniProt Q5W0B1) 0.082
OBSL1 (UniProt O75147) 0.037
